Results from PMC4297292 (Cancer Cell, 2015).

Test system: patient #2 cells (vemurafenib-resistant melanoma)
Test: Cell proliferation assay
Format: cell-based
Details: Homo sapiens, read-out: 50% inhibitory concentration [IC50]

IC50: 29.4 µM
Compound: C[S+]([O-])c1ccc(-c2nc(-c3ccncc3)c(-c3ccc(F)cc3)[nH]2)cc1 (stereo not shown) [SB203580]
